# Reference: PubChem BioAssay AID2417 (National Center for Advancing Translational Sciences (NCATS), 2010)
# The campaign covered roughly 140,000 compounds. About 4,300 (3.1%) were called active. Inconclusive results, whose numbers are uncertain, are shown with a selection of clear calls.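 How the source made its calls: active means readout at or below -70, meaning at least 70% loss of cells showing the perinucleolar compartment, a nuclear body marking cancer cells; inconclusive means readout between -30 and a set limit; inactive means the rest.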
# Test: High Content Assay for Compounds that inhibit the Assembly of the Perinucleolar Compartment;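 further: plate controls were DMSO wells for no effect and camptothecin positive control wells for full effect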
# Conditions: PC3M PTB-GFP, PNC prevalence imaging, 16 h; at 10 µM; hits give low values
# How it was run: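 Read-out is percentage of cells bearing a perinucleolar compartment, from automated 20x imaging of fixed, Hoechst-stained PC3M PTB-GFP cells. Cells were seeded 4 h, then exposed 16 h to compound (23 nl of library stock) in duplicate plates.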
row,Compound,"activity change (PNC), negative = inhibition"
1,CCOC(=O)Cc1csc(NC(=O)c2c(-c3ccccc3)noc2C)n1,inconclusive: -54.2%
2,COc1ccc(Nc2ncnc3c2cnn3Cc2ccccc2)cc1,inactive: 5.91%
3,CCC(=O)NC(C)c1nc2ccccc2n1C (stereo not given),inconclusive: -33.9%
4,CC(=O)N/C(=C/c1ccccc1)C(=O)N1CCCCC1,inconclusive: -75%
5,COc1cc(C)nc(NC(=O)COc2ccc(Cl)cc2C)n1,inconclusive: -38.5%
6,CN(C1CCCCC1)S(=O)(=O)c1ccc2c(c1)c(=O)c(C(=O)N1CCc3ccccc3C1)cn2C,inconclusive: -43%
7,O=C(CNC(=O)c1ccco1)NCC(=O)OC(C(=O)c1ccccc1)c1ccc(Cl)cc1 (stereo not given),active: -100%
8,Fc1ccccc1OCCSc1nnnn1-c1ccccc1,inconclusive: -46.2%
9,O=C(COC(=O)Cc1ccccc1F)Nc1cc(S(=O)(=O)N2CCOCC2)ccc1N1CCCC1,inactive: 48.4%
10,Nc1cc(N)nc(SCCOc2ccccc2F)n1,inconclusive: -32.5%
11,CC(C)N(Cc1nc(-c2ccccc2)no1)C(=O)CN1C(=O)c2ccccc2C1=O,active: -100%
12,CCOc1c(C(N)=O)cc([N+](=O)[O-])cc1[N+](=O)[O-],inconclusive: -39%
13,CN(C)C(=O)c1ccc(NC(=O)c2ccccc2Sc2ccccc2C#N)cc1,inactive: 34.4%
14,O=C(CSc1nnc2ccccn12)c1ccccc1,inconclusive: -56.4%
15,CCC(=O)Nc1cccc(NC(=S)NC(=O)c2ccc(Cl)cc2Cl)c1,inconclusive: -49.7%
16,CCN(Cc1nc2cc(OC)c(OC)cc2c(=O)[nH]1)C(=O)c1ccc(S(=O)(=O)N(C)C)cc1,inconclusive: -35.1%
17,CC(C)N=c1scc(-c2cccs2)n1/N=C/c1ccc(O)c(O)c1O,inconclusive: -60.1%
18,O=C(c1ccccc1[N+](=O)[O-])N1CCc2ccccc2C1,inactive: 5.25%
19,CCN1CCN(C(=O)CS(=O)(=O)Cc2nc(-c3ccc(C)cc3)oc2C)CC1,inconclusive: -42.7%
20,O=C(CSc1nc2ccccc2n1CCc1ccccc1)NC1CCS(=O)(=O)C1 (stereo not given),inconclusive: -39.7%
21,O=C1C2C3C=CC(c4ccccc4)(C2C(=O)N1c1cccc(Cl)c1)C1C(=O)N(c2cccc(Cl)c2)C(=O)C31 (stereo not given),inactive: 18.5%
22,CC1CCN(S(=O)(=O)c2cn(C)c(=O)n(C)c2=O)CC1,inconclusive: -40.2%
23,COc1ccc(O)c(C(=O)c2cnc3nc4ccccc4n3c2)c1,inconclusive: -56.2%

row,Compound,"activity change (PNC), negative = inhibition"
1,O=C(CSC1=NC(=O)C(c2ccccc2)C(=O)N1)Nc1cccc(Cl)c1 (stereo not given),inconclusive: -44%
2,Cc1ccc(S(=O)(=O)/N=C/c2ccco2)cc1,inconclusive: -58.8%
3,CC(Sc1nc2cc(Cl)ccc2s1)C(=O)Nc1cccc(S(=O)(=O)N2CCOCC2)c1 (stereo not given),inconclusive: -42.2%
4,CCOc1ccc2[nH]c(=O)c(CN(Cc3ccccc3OC)C(=O)c3ccccc3)cc2c1,inactive: -11.3%
5,Cc1nc2nc3c(cn2n1)C(=O)CCC3,inconclusive: -41.6%
6,Cc1c(C2C(C#N)=C(N)OC3=C2C(=O)CCC3)cnn1C (stereo not given),inconclusive: -35%
7,CCCn1nc2cc(C(=O)NCc3ccc(OC)cc3)ccc2c1OCC,inactive: 30.1%
8,CN(C)S(=O)(=O)N1CCCN(S(=O)(=O)N(C)C)CC1,inconclusive: -37.7%
9,CNS(=O)(=O)c1cccc(C(=O)OCc2csc(-c3ccccc3)n2)c1,inconclusive: -40.7%
10,O=C(CSc1nncs1)Nc1ccc(Cl)cn1,inactive: -7.98%
11,CC(=O)C1=C(O)C(=O)N(c2ccc(C(=O)O)cc2)C1c1ccccc1 (stereo not given),inactive: -6.92%
12,Cc1cc(Cl)c(S(=O)(=O)Nc2ccon2)cc1OCC(=O)NC1CCCCC1,inconclusive: -43.6%
13,C=CCn1c(Cc2cccs2)nnc1SC/C=C/c1ccccc1,inconclusive: -49.6%
14,CC(C)(C)OC(=O)N1CCC(C(=O)N[C@@H](Cc2ccccc2)C(=O)O)(c2ccccc2)CC1,inactive: 1.27%
15,COc1cccc(CN2C(=O)c3cccc(N)c3C2=O)c1,inconclusive: -41.9%
16,O=C(NCc1cc(C(F)(F)F)cc(C(F)(F)F)c1)C1CC(c2cccc([N+](=O)[O-])c2)=NO1 (stereo not given),inconclusive: -41.9%
17,CCn1c(NCc2cc(Br)ccc2NS(=O)(=O)c2ccc(C)cc2)nc2ccccc21,inconclusive: -38.2%
18,Cc1cc2c(c(=O)n1Cc1ccco1)C(c1ccccc1)C(C#N)=C(N)O2 (stereo not given),inactive: -6.34%
19,Nc1nc(-c2ccco2)nn1C(=O)CCc1ccccc1,inconclusive: -50.1%
20,CCOc1ccccc1NC(=O)CN(Cc1ccccc1)S(C)(=O)=O,active: -94.2%
21,COC(=O)c1c(NC(=O)CSc2nnnn2-c2ccccc2)sc2c1CCC(C(C)(C)C)C2 (stereo not given),inactive: 37.6%
22,O=C(Cc1cccc2ccccc12)Nc1nc(-c2cccc([N+](=O)[O-])c2)cs1,inactive: -20.5%

# Part of the list above, as tab-separated lines:
row	Compound	activity change (PNC), negative = inhibition
17	CCn1c(NCc2cc(Br)ccc2NS(=O)(=O)c2ccc(C)cc2)nc2ccccc21	inconclusive: -38.2%
18	Cc1cc2c(c(=O)n1Cc1ccco1)C(c1ccccc1)C(C#N)=C(N)O2 (stereo not given)	inactive: -6.34%
19	Nc1nc(-c2ccco2)nn1C(=O)CCc1ccccc1	inconclusive: -50.1%
